# The supplement of paper PMC8728848
# The other results are listed elsewhere or left out.
# Key:
# Experiment in all cases: glycan array binding signal (z-score within array); higher = stronger binding
# Details in all cases: glycan notation: IUPAC condensed, linker removed
# Fuc(a1-2)Gal = molecular target: Fuc(a1-2)Gal
# How it was run: (§1)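 Glycan array data came from 3228 arrays in the Consortium for Functional Glycomics database, and only arrays with an available protein sequence were kept. Glycan names were put into IUPAC-condensed notation, and columns mapping to the same glycan were averaged. The binding signal is a within-array Z-score, averaged across arrays of one protein sequence run at different concentrations or buffers and across linkers. A negative Z-score can be read as non-binding.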
# Fuc(a1-2)Gal(b1-3)GalNAc = molecular target: Fuc(a1-2)Gal(b1-3)GalNAc
# How it was run: as §1
# [1] = molecular target: Fuc(a1-2)Gal(b1-3)GalNAc(a1-3)[Fuc(a1-2)]Gal(b1-4)Glc
# How it was run: as §1
# [2] = molecular target: Fuc(a1-2)Gal(b1-3)GalNAc(a1-3)[Fuc(a1-2)]Gal(b1-4)GlcNAc
# How it was run: as §1
# [3] = molecular target: Fuc(a1-2)Gal(b1-3)GalNAc(b1-3)Gal
# How it was run: as §1
# [4] = molecular target: Fuc(a1-2)Gal(b1-3)GalNAc(b1-3)Gal(a1-4)Gal(b1-4)Glc
# How it was run: as §1
# [5] = molecular target: Fuc(a1-2)Gal(b1-3)GalNAc(b1-4)[Neu5Ac(a2-3)]Gal(b1-4)Glc
# How it was run: as §1
# Fuc(a1-2)Gal(b1-3)GlcNAc = molecular target: Fuc(a1-2)Gal(b1-3)GlcNAc
# How it was run: as §1
# [6] = molecular target: Fuc(a1-2)Gal(b1-3)GlcNAc(b1-2)Man(a1-3)[Fuc(a1-2)Gal(b1-3)GlcNAc(b1-2)Man(a1-6)]Man(b1-4)GlcNAc(b1-4)GlcNAc
# How it was run: as §1
# [7] = molecular target: Fuc(a1-2)Gal(b1-3)GlcNAc(b1-2)Man(a1-3)[Fuc(a1-2)Gal(b1-3)GlcNAc(b1-2)Man(a1-6)]Man(b1-4)GlcNAc(b1-4)[Fuc(a1-6)]GlcNAc
# How it was run: as §1
# [8] = molecular target: Fuc(a1-2)Gal(b1-3)GlcNAc(b1-3)Gal(b1-4)Glc
# How it was run: as §1
# [9] = molecular target: Fuc(a1-2)Gal(b1-3)GlcNAc(b1-3)GalNAc
# How it was run: as §1
# [10] = molecular target: Fuc(a1-2)Gal(b1-3)GlcNAc(b1-3)[Fuc(a1-2)Gal(b1-3)GlcNAc(b1-6)]GalNAc
# How it was run: as §1
# [11] = molecular target: Fuc(a1-2)Gal(b1-3)GlcNAc(b1-3)[Gal(b1-4)GlcNAc(b1-6)]Gal(b1-4)Glc
# How it was run: as §1
# [12] = molecular target: Fuc(a1-2)Gal(b1-3)GlcNAc(b1-3)[Neu5Ac(a2-6)Gal(b1-4)GlcNAc(b1-6)]Gal(b1-4)Glc
# How it was run: as §1
# [13] = molecular target: Fuc(a1-2)Gal(b1-3)GlcNAc6S
# How it was run: as §1
# [14] = molecular target: Fuc(a1-2)Gal(b1-3)[Fuc(a1-4)]GlcNAc
# How it was run: as §1
# [15] = molecular target: Fuc(a1-2)Gal(b1-3)[Fuc(a1-4)]GlcNAc(b1-2)Man(a1-3)[Fuc(a1-2)Gal(b1-3)[Fuc(a1-4)]GlcNAc(b1-2)Man(a1-3)]Man(b1-4)GlcNAc(b1-4)GlcNAc
# How it was run: as §1
# [16] = molecular target: Fuc(a1-2)Gal(b1-3)[Fuc(a1-4)]GlcNAc(b1-2)Man(a1-3)[Fuc(a1-2)Gal(b1-3)[Fuc(a1-4)]GlcNAc(b1-2)Man(a1-6)]Man(b1-4)GlcNAc(b1-4)[Fuc(a1-6)]GlcNAc(b1-4)[Fuc(a1-6)]GlcNAc
# How it was run: as §1
# [17] = molecular target: Fuc(a1-2)Gal(b1-3)[Fuc(a1-4)]GlcNAc(b1-3)[Fuc(a1-3)[Gal(b1-4)]GlcNAc(b1-6)]Gal(b1-4)Glc
# How it was run: as §1
# [18] = molecular target: Fuc(a1-2)Gal(b1-3)[Fuc(a1-4)]GlcNAc(b1-3)[Gal(b1-4)GlcNAc(b1-6)]Gal(b1-4)Glc
# How it was run: as §1
# Fuc(a1-2)Gal(b1-4)Glc = molecular target: Fuc(a1-2)Gal(b1-4)Glc
# How it was run: as §1
# Fuc(a1-2)Gal(b1-4)Glc6S = molecular target: Fuc(a1-2)Gal(b1-4)Glc6S
# How it was run: as §1
# Fuc(a1-2)Gal(b1-4)GlcNAc = molecular target: Fuc(a1-2)Gal(b1-4)GlcNAc
# How it was run: as §1
# [19] = molecular target: Fuc(a1-2)Gal(b1-4)GlcNAc(b1-2)Man
# How it was run: as §1
# [20] = molecular target: Fuc(a1-2)Gal(b1-4)GlcNAc(b1-2)Man(a1-3)[Fuc(a1-2)Gal(b1-4)GlcNAc(b1-2)Man(a1-6)]Man(b1-4)GlcNAc(b1-4)GlcNAc
# How it was run: as §1
# [21] = molecular target: Fuc(a1-2)Gal(b1-4)GlcNAc(b1-2)Man(a1-3)[Fuc(a1-2)Gal(b1-4)GlcNAc(b1-2)Man(a1-6)]Man(b1-4)GlcNAc(b1-4)[Fuc(a1-6)]GlcNAc
# How it was run: as §1
# [22] = molecular target: Fuc(a1-2)Gal(b1-4)GlcNAc(b1-2)[Fuc(a1-2)Gal(b1-4)GlcNAc(b1-4)]Man(a1-3)[Fuc(a1-2)Gal(b1-4)GlcNAc(b1-2)Man(a1-6)]Man(b1-4)GlcNAc(b1-4)GlcNAc
# How it was run: as §1
# [23] = molecular target: Fuc(a1-2)Gal(b1-4)GlcNAc(b1-3)Gal(b1-4)GlcNAc
# How it was run: as §1
# [24] = molecular target: Fuc(a1-2)Gal(b1-4)GlcNAc(b1-3)Gal(b1-4)GlcNAc(b1-2)Man(a1-3)[Fuc(a1-2)Gal(b1-4)GlcNAc(b1-3)Gal(b1-4)GlcNAc(b1-2)Man(a1-6)]Man(b1-4)GlcNAc(b1-4)GlcNAc
# How it was run: as §1
# [25] = molecular target: Fuc(a1-2)Gal(b1-4)GlcNAc(b1-3)Gal(b1-4)GlcNAc(b1-3)Gal(b1-4)GlcNAc
# How it was run: as §1
# [26] = molecular target: Fuc(a1-2)Gal(b1-4)GlcNAc(b1-3)GalNAc
# How it was run: as §1
# [27] = molecular target: Fuc(a1-2)Gal(b1-4)GlcNAc(b1-3)[Fuc(a1-2)Gal(b1-4)GlcNAc(b1-6)]GalNAc
# How it was run: as §1
# [28] = molecular target: Fuc(a1-2)Gal(b1-4)GlcNAc(b1-3)[Fuc(a1-3)[Gal(b1-4)]GlcNAc(b1-6)]Gal(b1-4)Glc
# How it was run: as §1
# [29] = molecular target: Fuc(a1-2)Gal(b1-4)GlcNAc(b1-6)GalNAc
# How it was run: as §1
# [30] = molecular target: Fuc(a1-2)Gal(b1-4)GlcNAc6S
# How it was run: as §1
# [31] = molecular target: Fuc(a1-2)Gal(b1-4)[Fuc(a1-3)]GlcNAc
# How it was run: as §1
# [32] = molecular target: Fuc(a1-2)Gal(b1-4)[Fuc(a1-3)]GlcNAc(b1-2)Man(a1-3)[Fuc(a1-2)Gal(b1-4)[Fuc(a1-3)]GlcNAc(b1-2)Man(a1-6)]Man(b1-4)GlcNAc(b1-4)[Fuc(a1-6)]GlcNAc
# How it was run: as §1
# [33] = molecular target: Fuc(a1-2)Gal(b1-4)[Fuc(a1-3)]GlcNAc(b1-2)[Fuc(a1-2)Gal(b1-4)[Fuc(a1-3)]GlcNAc(b1-4)]Man(a1-3)[Fuc(a1-2)Gal(b1-4)[Fuc(a1-3)]GlcNAc(b1-2)Man(a1-6)]Man(b1-4)GlcNAc(b1-4)GlcNAc
# How it was run: as §1
# [34] = molecular target: Fuc(a1-2)Gal(b1-4)[Fuc(a1-3)]GlcNAc(b1-3)Gal(b1-4)[Fuc(a1-3)]GlcNAc
# How it was run: as §1
# [35] = molecular target: Fuc(a1-2)Gal(b1-4)[Fuc(a1-3)]GlcNAc(b1-3)Gal(b1-4)[Fuc(a1-3)]GlcNAc(b1-3)Gal(b1-4)[Fuc(a1-3)]GlcNAc
# How it was run: as §1
# [36] = molecular target: Fuc(a1-2)Gal(b1-4)[Fuc(a1-3)]GlcNAc(b1-3)GalNAc
# How it was run: as §1
# [37] = molecular target: Fuc(a1-2)Gal(b1-4)[Fuc(a1-3)]GlcNAc(b1-3)[Neu5Ac(a2-6)Gal(b1-4)GlcNAc(b1-6)]Gal(b1-4)Glc
# How it was run: as §1
# [38] = molecular target: Fuc(a1-2)Gal3S(b1-4)GlcNAc
# How it was run: as §1
# [39] = molecular target: Fuc(a1-2)Gal6S(b1-3)GlcNAc
# How it was run: as §1
binder,measurement,setting,value
Blon2355mut (Bifidobacterium longum) (protein) MVQEPTLEWHVIPEPTNVEPLVGTCSLPLSGTVVEQRGADDAEAVFARQLVDDIKRVCGGRWQVASGEVQREVTLRTSPSLDDWSYVLEVSPDGVVITGSGFEGVRDGVQTLRQIIRQIGLTIPCMVIRDRPAFSTRGYYLDVTRGRVPSMAWLKSWVDRLCFYKYNQFQLYIEHTFQFNGLSEVWRGADPLTSSDILELDSYCAARGIELVPSVSTFGHHYTALRTRQLRDLGEFPEDADRPFSLIERMTHHTLNITDERSYEFSTSLIDELMPLFRSRKFNICANETFDLGKGRSKQESAKRGVGAMYADFVERLCRHVDDRGHDVMVWADVALEHPEIIDTLPKNITWLNWQYEPNVDDGTTAALADAGATQMVCPAVWCWNALIPRIDDAWNNITRMARHGRAHDVSGMLVTDWGDFGHVNDPRMSVPGMIFGAQQSWNPDAELSEVDMLSRISTIEYGDHTGSVVGALRGASAKGGFSWSDLVTYLELDDGRGGCNTEIVRVMGCLEAYRNDLPQSGQARLADARVSMLRTLRDSILAGRELNGKLDDAAKDITQLLRVAGDPSSAAVWSLAIDGQRLLNRVGLALLAAHGVVRQDEAGIDAAKLADELECWTEQYSRLWHEVSRQSELARIQHVVWRAADVLRSI,glycan array binding signal (z-score),Fuc(a1-2)Gal,-0.707
same,glycan array binding signal (z-score),Fuc(a1-2)Gal(b1-3)GalNAc,0.083
same,glycan array binding signal (z-score),[1],-0.486
same,glycan array binding signal (z-score),[2],0.861
same,glycan array binding signal (z-score),[3],4.04
same,glycan array binding signal (z-score),[4],0.339
same,glycan array binding signal (z-score),[5],0.389
same,glycan array binding signal (z-score),Fuc(a1-2)Gal(b1-3)GlcNAc,-0.006
same,glycan array binding signal (z-score),[6],2.69
same,glycan array binding signal (z-score),[7],-0.681
same,glycan array binding signal (z-score),[8],-0.619
same,glycan array binding signal (z-score),[9],-0.596
same,glycan array binding signal (z-score),[10],1.74
same,glycan array binding signal (z-score),[11],-1.38
same,glycan array binding signal (z-score),[12],-0.64
same,glycan array binding signal (z-score),[13],-0.357
same,glycan array binding signal (z-score),[14],0.165
same,glycan array binding signal (z-score),[15],-0.498
same,glycan array binding signal (z-score),[16],-0.505
same,glycan array binding signal (z-score),[17],-1.14
same,glycan array binding signal (z-score),[18],-0.739
same,glycan array binding signal (z-score),Fuc(a1-2)Gal(b1-4)Glc,0.628
same,glycan array binding signal (z-score),Fuc(a1-2)Gal(b1-4)Glc6S,1.13
same,glycan array binding signal (z-score),Fuc(a1-2)Gal(b1-4)GlcNAc,0.12
same,glycan array binding signal (z-score),[19],-0.511
same,glycan array binding signal (z-score),[20],-1.28
same,glycan array binding signal (z-score),[21],0.088
same,glycan array binding signal (z-score),[22],-0.562
same,glycan array binding signal (z-score),[23],0.464
same,glycan array binding signal (z-score),[24],0.87
same,glycan array binding signal (z-score),[25],-0.644
same,glycan array binding signal (z-score),[26],-0.852
same,glycan array binding signal (z-score),[27],-0.88
same,glycan array binding signal (z-score),[28],-0.912
same,glycan array binding signal (z-score),[29],1.67
same,glycan array binding signal (z-score),[30],-0.384
same,glycan array binding signal (z-score),[31],-0.777
same,glycan array binding signal (z-score),[32],0.063
same,glycan array binding signal (z-score),[33],-0.46
same,glycan array binding signal (z-score),[34],-0.858
same,glycan array binding signal (z-score),[35],-0.095
same,glycan array binding signal (z-score),[36],-1.09
same,glycan array binding signal (z-score),[37],-0.434
same,glycan array binding signal (z-score),[38],-0.915
same,glycan array binding signal (z-score),[39],0.153

# Already shown: entries from further up.
binder,measurement,setting,value
Blon2355mut (Bifidobacterium longum) (protein) MVQEPTLEWHVIPEPTNVEPLVGTCSLPLSGTVVEQRGADDAEAVFARQLVDDIKRVCGGRWQVASGEVQREVTLRTSPSLDDWSYVLEVSPDGVVITGSGFEGVRDGVQTLRQIIRQIGLTIPCMVIRDRPAFSTRGYYLDVTRGRVPSMAWLKSWVDRLCFYKYNQFQLYIEHTFQFNGLSEVWRGADPLTSSDILELDSYCAARGIELVPSVSTFGHHYTALRTRQLRDLGEFPEDADRPFSLIERMTHHTLNITDERSYEFSTSLIDELMPLFRSRKFNICANETFDLGKGRSKQESAKRGVGAMYADFVERLCRHVDDRGHDVMVWADVALEHPEIIDTLPKNITWLNWQYEPNVDDGTTAALADAGATQMVCPAVWCWNALIPRIDDAWNNITRMARHGRAHDVSGMLVTDWGDFGHVNDPRMSVPGMIFGAQQSWNPDAELSEVDMLSRISTIEYGDHTGSVVGALRGASAKGGFSWSDLVTYLELDDGRGGCNTEIVRVMGCLEAYRNDLPQSGQARLADARVSMLRTLRDSILAGRELNGKLDDAAKDITQLLRVAGDPSSAAVWSLAIDGQRLLNRVGLALLAAHGVVRQDEAGIDAAKLADELECWTEQYSRLWHEVSRQSELARIQHVVWRAADVLRSI,glycan array binding signal (z-score),[5],0.389
same,glycan array binding signal (z-score),Fuc(a1-2)Gal(b1-3)GlcNAc,-0.006
